Test results reported in PMC4634149.
These are yes or no findings as the source states them, for the method shown. In cells and extracts the contact can be indirect. These calls come from enrichment with a bait or labelling near it, and not all partners need be listed. Where a sequence is shown, tags or fusion partners need not be part of it.

Target: T1, AIP1 with N-terminal TAP tag (Arabidopsis thaliana) (UniProt Q8H0V4)
T1 sequence: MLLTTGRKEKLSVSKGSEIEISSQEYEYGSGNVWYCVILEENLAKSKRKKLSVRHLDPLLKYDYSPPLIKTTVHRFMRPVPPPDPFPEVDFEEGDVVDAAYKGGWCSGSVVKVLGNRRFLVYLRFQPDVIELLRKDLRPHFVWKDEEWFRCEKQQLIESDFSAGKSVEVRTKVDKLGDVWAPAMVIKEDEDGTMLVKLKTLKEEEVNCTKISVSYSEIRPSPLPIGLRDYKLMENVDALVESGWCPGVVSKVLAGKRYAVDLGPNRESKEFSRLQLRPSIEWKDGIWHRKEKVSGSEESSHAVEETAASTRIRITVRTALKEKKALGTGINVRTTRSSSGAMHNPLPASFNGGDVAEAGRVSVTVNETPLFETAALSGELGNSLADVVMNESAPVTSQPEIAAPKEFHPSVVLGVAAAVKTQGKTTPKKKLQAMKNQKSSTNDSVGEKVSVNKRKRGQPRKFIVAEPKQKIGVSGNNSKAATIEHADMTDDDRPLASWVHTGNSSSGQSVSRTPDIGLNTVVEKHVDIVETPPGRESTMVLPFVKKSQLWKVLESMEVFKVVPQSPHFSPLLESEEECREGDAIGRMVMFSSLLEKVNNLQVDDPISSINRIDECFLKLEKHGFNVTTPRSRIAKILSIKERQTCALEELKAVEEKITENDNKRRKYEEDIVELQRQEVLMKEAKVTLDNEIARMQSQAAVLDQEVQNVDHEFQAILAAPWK
Test: affinity purification with mass spectrometry; tandem affinity purification (protein G and streptavidin binding peptide tag) of N-terminally tagged AIP1 from Arabidopsis cell suspension cultures; three trials; background of about 40 control TAP experiments subtracted

B1: TPR-like superfamily protein (protein, UniProt O22714 1-491)
chain: MAMRHLSRSRDVTKRSTKKYIEEPLYNRLFKDGGTEVKVRQQLNQFLKGTKHVFKWEVGDTIKKLRNRGLYYPALKLSEVMEERGMNKTVSDQAIHLDLVAKAREITAGENYFVDLPETSKTELTYGSLLNCYCKELLTEKAEGLLNKMKELNITPSSMSYNSLMTLYTKTGETEKVPAMIQELKAENVMPDSYTYNVWMRALAATNDISGVERVIEEMNRDGRVAPDWTTYSNMASIYVDAGLSQKAEKALQELEMKNTQRDFTAYQFLITLYGRLGKLTEVYRIWRSLRLAIPKTSNVAYLNMIQVLVKLNDLPGAETLFKEWQANCSTYDIRIVNVLIGAYAQEGLIQKANELKEKAPRRGGKLNAKTWEIFMDYYVKSGDMARALECMSKAVSIGKGDGGKWLPSPETVRALMSYFEQKKDVNGAENLLEILKNGTDNIGAEIFEPLIRTYAAAGKSHPAMRRRLKMENVEVNEATKKLLDEVSQDV
In the case of B1, the binding is reported as “binds”.
